This passage reports binding results from paper PMC13434726.

Sequences of proteins named here, by UniProt entry; tags and fusion partners are left off.
UniProt Q04206: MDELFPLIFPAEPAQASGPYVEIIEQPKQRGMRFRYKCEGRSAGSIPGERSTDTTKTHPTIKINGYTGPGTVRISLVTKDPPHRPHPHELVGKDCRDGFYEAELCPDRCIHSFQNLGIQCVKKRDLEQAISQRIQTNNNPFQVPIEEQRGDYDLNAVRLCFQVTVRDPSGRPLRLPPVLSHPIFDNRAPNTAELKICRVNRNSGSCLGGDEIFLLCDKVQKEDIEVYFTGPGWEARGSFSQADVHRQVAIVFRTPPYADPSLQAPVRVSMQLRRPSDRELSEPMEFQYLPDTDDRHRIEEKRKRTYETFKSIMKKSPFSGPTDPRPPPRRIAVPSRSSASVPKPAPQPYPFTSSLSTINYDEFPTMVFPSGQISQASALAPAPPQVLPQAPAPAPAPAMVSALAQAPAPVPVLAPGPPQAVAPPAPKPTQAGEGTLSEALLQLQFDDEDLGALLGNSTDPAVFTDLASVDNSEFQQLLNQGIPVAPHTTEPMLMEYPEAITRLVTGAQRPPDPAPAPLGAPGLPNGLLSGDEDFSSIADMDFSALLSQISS

These are yes or no findings as the source states them, for the method shown. Binding seen in cells or lysates may run through a third protein. Some binding calls cover weakened binding; strength is not graded here.

Assay [1] concerns the target GFP-COMMD2 (UniProt Q86X83). The experiment in a line: co-IP.
Assay [2] has as its target GFP-COMMD2 (UniProt Q86X83). The experiment in a line: condition: only cells not challenged with TIGR4 (6B ST90 ± IL-1β, IL-1β controls); co-IP.

For p65 (from UniProt Q04206 1-551), the values for the binding entry in the assay with GFP-COMMD2 [1] and with GFP-COMMD2 [2] were “binds” and “no binding”, respectively.
For p62/SQSTM1 (from UniProt Q13501 1-440) the same measures were “binds” and “no binding”.
